# Data from PubChem BioAssay AID493014 (National Center for Advancing Translational Sciences (NCATS), 2011).
# In all, about 340,000 compounds went through this assay and about 170 (0.05%) were called active. Inconclusive means that the source gave no clear call. Such entries were picked first, then a sample of the others. Calls come from the whole dose curve; as a rule, active = well fitted inhibition curve with a large enough effect in the signal ratio, with a control signal flat (not every such curve was filed as active); inconclusive = small, poorly fitted or top-dose-only effect, or effect the other way, or a change in a side signal; inactive = flat fitted curve, though single readings scatter; the % refers to the signal ratio. A potency beside an inconclusive call is a rough fit, not a confirmed value.
# Experiment: qHTS Assay to Find Inhibitors of Chronic Active B-Cell Receptor Signaling;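 for activity change, negative = inhibition: plate controls were basal doxycycline-induced cells for no effect and cells given 10 µM MG132 for full effect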
# Conditions: ABC-DLBCL IkBa-CBG/CBR reporter, luminescence ratio (green luciferase fused to IkBa over red control in TMD8 lymphoma cells), 4 h; activity change, negative = inhibition: at 46.1 µM (top of the series)
# Procedure, shortened: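 Compounds up to 46 uM were incubated four hours with TMD8 cells whose green CBG68 luciferase is fused to IkappaBalpha; red CBR luminescence normalised the signal, and concentration-effect curves were fitted to fusion, red and ratio data.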
# Potency is the fitted concentration of half-maximal effect.
Compound,"activity change, negative = inhibition",Potency
CNC(=O)C(=O)Nc1c(C)cc(C)cc1C,inactive,–
Cc1cc(C)c2c(N)c(C(=O)Nc3nccs3)sc2n1,inconclusive: -0.758%,–
CCOC(=O)CC1(c2ccc(OC)c(OC)c2)C(=O)c2ccccc2C1=O,inconclusive: -17.6%,–
CCOc1ccc(NC(=O)CCSc2nc3c(c(CC)c2C#N)C(=O)CC(C)(C)C3)cc1,inconclusive: 11.9%,–
CC[C@]12c3[nH]c4cc(CCC(=O)N(C)C)ccc4c3CCN1C(=O)[C@@H](CC(=O)NCCN1CCOCC1)C[C@@H]2C(=O)N1CCN(C(=O)c2ccco2)CC1,inconclusive: -6.03%,–
COc1cc(C(=O)NCCOc2ccccc2)cc(OC)c1OC,inactive,–
CCOC(=O)C(C)(C)N(Cc1ccccc1C)S(=O)(=O)c1ccc(Cl)c([N+](=O)[O-])c1,inconclusive: -13.4%,–
CCOC(=O)CSc1ccc(C(=O)Nc2ccc(Cl)cc2)cn1,–,"inconclusive: 35.5 µM [rising, single point]"
CCC(=O)NC(=S)Nc1cccc(NC(=O)CC)c1,inactive,–
COc1ccc(C(O)P(=O)(O)CCc2ccccc2)cc1 (stereo unspecified),inconclusive: -4.97%,–
CC(=O)OC1COC(N2CCc3ccccc32)C(OC(C)=O)C1OC(C)=O (stereo unspecified),inactive,–
COc1ccccc1C(=O)N/N=C/c1cnc2ccccc2n1,–,"inconclusive: 20.6 µM [falling, partial curve]"
Cc1ccc(CN2C(=O)S/C(=C\c3ccccc3OCC(=O)O)C2=O)cc1,–,"inconclusive: 31.6 µM [falling, single point]"
COc1ccc(C(=O)CSc2nnc(CCc3ccccc3)n2-c2ccccc2)cc1,inactive,–
CCOC(=O)/C(C#N)=C/c1cc(C)n(-c2ccc(C)cc2)c1C,inactive,–
O=C(NCCCN1CCCCCC1)C1CC(=O)N(CCc2ccccc2)C1 (stereo unspecified),inconclusive: -8.52%,–
O=C(CCc1nc(-c2ccc(F)cc2)no1)NCc1ccccc1CN1CCOCC1,inconclusive: -3.62%,–
CC1CCCC(NC(=O)Cn2c(Cl)nc3c2c(=O)n(C)c(=O)n3C)C1C (stereo unspecified),inactive,–
O=C(CCC(=O)c1ccc(Oc2ccccc2)cc1)Nc1ccc(C(=O)O)cc1,inconclusive: -5.14%,–
S=c1nc[nH]c2c1ncn2C1CCCO1 (stereo unspecified),inconclusive: -3.94%,–
COC(=O)c1ccc(CN2C(=O)NC3(CCCCC3)C2=O)cc1,–,"inconclusive: 22.4 µM [falling, partial curve]"

# A second format for part of the listing above:
Compound	activity change, negative = inhibition	Potency
CNC(=O)C(=O)Nc1c(C)cc(C)cc1C	inactive	–
CCOC(=O)CSc1ccc(C(=O)Nc2ccc(Cl)cc2)cn1	–	inconclusive: 35.5 µM [rising, single point]

# (further entries)

Compound,"activity change, negative = inhibition",Potency
CCCCOC(=O)c1ccc(N)cc1,inconclusive: 7.51%,–
CCOc1ccc(NC(=O)CN(C)C(=O)CCCc2c[nH]c3ccccc23)cc1OCC,–,"inconclusive: 20.6 µM [falling, partial curve]"
Cc1ccc(-c2nnc(NC3CCCC3)s2)cc1,–,"inconclusive: 22.4 µM [falling, partial curve]"
NS(=O)(=O)c1ccc(NC(=O)Nc2cccc(Cl)c2)cc1,inactive,–
CCOC(=O)c1ccc(N2C(=O)[C@@H](c3ccccc3)[C@H]2c2ccccc2)cc1,inconclusive: 14.8%,–
CSc1ncccc1C(=O)OCc1c(F)cccc1Cl,inconclusive: 0.129%,–
COC(=O)C(C)Oc1ccc2c(c1)O/C(=C\c1ccco1)C2=O (stereo unspecified),inactive,–
COc1cc(/C=C2/SC(=Nc3ccc(O)cc3)NC2=O)cc(OC)c1O,inconclusive: -2.82%,–
COc1ccc2oc(C(=O)Nc3ccccn3)c(C)c2c1,–,"inconclusive: 11.2 µM [falling, partial curve]"
CCS(=O)(=O)n1c(Cc2cccs2)nc2ccccc21,inconclusive: -5.29%,–
O=C(c1cccs1)N1CCN(c2cc(Cl)ccc2Cl)CC1,inactive,–
COc1ccc(C(=O)c2c[nH]cc2-c2ccccc2)cc1,inconclusive: 8.04%,–
Cc1ccc(S(=O)(=O)CC(=O)N2CCN(c3ccc([N+](=O)[O-])cc3)CC2)cc1,inconclusive: -0.281%,–
CCOc1ccc(C(=O)NC(=S)Nc2ncccc2C)cc1[N+](=O)[O-],–,"inconclusive: 18.4 µM [falling, single point]"
CCOc1ccc(N(CC(=O)NC2CCCCCC2)S(=O)(=O)c2ccccc2)cc1,inconclusive: -10.5%,–
COC(=O)c1cccc(NC2=NS(=O)(=O)c3ccccc32)c1,–,"inconclusive: 12.6 µM [falling, partial curve, poor fit]"
CCn1c(SCC(=O)N/N=C/c2c[nH]c3ccccc23)nnc1-c1ccc(C)cc1,–,"inconclusive: 8.91 µM [falling, partial curve]"
COc1ccc(-c2cc(C(=O)NC3=NCCS3)c3ccccc3n2)cc1OC,inconclusive: -2.89%,–
CC(O)c1cccc(-c2ccc(CN3C[C@]4(CO)O[C@@H](CO)C[C@@H]4S3(=O)=O)cc2)c1 (stereo partly specified),inconclusive: -2.14%,–
C=CCSc1nc2ccccc2c(=O)n1C1CCOC(C)(C)C1 (stereo unspecified),inconclusive: 19.2%,–
COc1ccc(-c2oc3cccnc3c2-c2ccc(OC)nc2)cc1,inconclusive: 1.71%,–

# Among those listed so far, two contain a cyano group:
Compound,"activity change, negative = inhibition",Potency
CCOc1ccc(NC(=O)CCSc2nc3c(c(CC)c2C#N)C(=O)CC(C)(C)C3)cc1,inconclusive: 11.9%,–
CCOC(=O)/C(C#N)=C/c1cc(C)n(-c2ccc(C)cc2)c1C,inactive,–

# Sorted by count of non-hydrogen atoms (ascending): 3 of the compounds above.
Compound,"activity change, negative = inhibition",Potency
S=c1nc[nH]c2c1ncn2C1CCCO1 (stereo unspecified),inconclusive: -3.94%,–
COc1cc(C(=O)NCCOc2ccccc2)cc(OC)c1OC,inactive,–
O=C(NCCCN1CCCCCC1)C1CC(=O)N(CCc2ccccc2)C1 (stereo unspecified),inconclusive: -8.52%,–

# (next part)

Compound,"activity change, negative = inhibition",Potency
O=C(N=Nc1c(O)[nH]c2ccc(Br)cc12)c1ccccc1-n1cccc1,inconclusive: 9.53%,–
CC1CC(C)(C)CC2(C1)NC(=O)N(CC(=O)Nc1c(F)cccc1F)C2=O (stereo unspecified),inactive,–
COc1ccc(/C=N/NC(=O)c2ccc(-n3cnnn3)cc2)cc1,–,"inconclusive: 16.4 µM [falling, single point]"
CC1CCc2sc3nc(NCc4ccco4)n4ncnc4c3c2C1 (stereo unspecified),inconclusive: 15.3%,–
COc1nc(NC(C)(C)C)nc(Oc2ccc(=O)n(-c3ccccc3)n2)n1,inconclusive: -1.01%,–
CCC(C(=O)NCc1ccccc1OC)n1nc(C)n2c(cc3occc32)c1=O (stereo unspecified),–,"inconclusive: 29.1 µM [falling, single point]"
O=C(Cc1cccs1)NNC(=S)NCc1ccc(Cl)cc1,inactive,–
Cc1ccc(C2Nc3ccc4ccccc4c3C3=C2C(=O)CC(C)(C)C3)o1 (stereo unspecified),inactive,–
Cc1c(C(=O)N(CCO)Cc2ccccc2)oc2c(F)cccc12,inactive,–
Cc1cc(SCC(=O)c2ccccc2)nc(C)n1,–,"inconclusive: 22.4 µM [falling, single point]"
Cc1ccc(NS(=O)(=O)c2c(C)[nH]c(C)c2C(=O)N2CCCCC2)c(Br)c1,inactive,–
Nc1nnc(SCc2ccccc2)n1-c1ccccc1,–,"inconclusive: 32.6 µM [falling, partial curve, poor fit]"
CCn1nc(C(=O)OCC(=O)NCC(C)C)c2ccccc2c1=O,inactive,–
O=C(c1cccc(C(F)(F)F)c1)N1CCCC1,inconclusive: 3.8%,–
Clc1cccc(CSc2nnc(-c3c[nH]c4ccccc34)o2)c1,–,"inconclusive: 2.59 µM [rising, partial curve, poor fit]"
CCn1cc([N+](=O)[O-])c(C(=O)N2N=C(c3cccc4ccccc34)CC2c2ccccc2O)n1 (stereo unspecified),inconclusive: 11.9%,–
COc1ccc(NC(=O)CN(C)C(=O)c2cc(-c3ccc(OC)cc3)nc3ccccc23)cc1,inconclusive: -3.33%,–
CCNC(=S)N(Cc1ccc2c(c1)OCO2)C1CC(=O)N(c2ccc(F)cc2)C1=O (stereo unspecified),inconclusive: -12.7%,–
CCOC(=O)C1CCN(Cc2c(O)c3ccccc3oc2=O)CC1,–,"inconclusive: 1.12 µM [falling, full curve]"
O=C(CCCSc1nnc(Nc2ccccc2F)s1)N1CCOCC1,–,"inconclusive: 10 µM [falling, partial curve]"
Cc1nn(-c2ccccc2)c(C)c1/C=N/NC(=O)c1cc(C(C)(C)C)[nH]n1,inactive,–

Compound,"activity change, negative = inhibition",Potency
O=C(Nc1ccccc1F)N(CCCN1CCOCC1)Cc1cc2cc3c(cc2[nH]c1=O)OCCO3,inconclusive: -2.32%,–
COc1cccc(OCCCCSc2ncccn2)c1,inconclusive: 3.76%,–
COc1ccc(C(NC(=O)/C=C/c2ccco2)c2ccc(OC)c(OC)c2)cc1OC,–,"inconclusive: 23.1 µM [falling, partial curve, poor fit]"
Cc1ccc(C)c(N2CCN(C(=S)Nc3ccc4nc(N5CCOCC5)cc(C)c4c3)CC2)c1,–,"inconclusive: 8.91 µM [falling, partial curve]"
COc1ccc(C(=O)Nc2cccc(-c3nnc(-c4ccco4)o3)c2)cc1,inconclusive: 15.6%,–
O=C(CNC(=O)c1ccccn1)N=Nc1c(O)[nH]c2ccccc12,–,"inconclusive: 22.4 µM [falling, single point]"
O=C(COc1ccccc1)N1CCN(C(=O)COc2ccccc2)CC1,inconclusive: 1.02%,–
O=C(O)CCCNC(=O)Nc1ccccc1,inconclusive: 5.85%,–
O=C(Nc1cc([N+](=O)[O-])ccc1C(=O)NCCN1CCOCC1)c1ccccc1,inactive,–
CCOC(=O)c1sc2nc(CC(=O)OC)nc(NCCN3CCOCC3)c2c1C,inconclusive: 8.35%,–
COC(=O)[C@@H]1C[C@@]2(O)[C@H](O)[C@H](O)[C@H](O)C[C@H]2N1CC(c1ccccc1)c1ccccc1,inconclusive: 4.84%,–
C=C(C)CSc1nnc(-c2ccc(C)cc2)n1N,inconclusive: 18.2%,–
COc1ccc(-c2nnc(SCc3ccccc3F)o2)cc1OC,inconclusive: 0.951%,–
COc1ccccc1C(=O)NCCn1cc(SCC(=O)NCC2CCCO2)c2ccccc21 (stereo unspecified),inconclusive: -7.42%,–
COc1cccc(-c2sc3ccccc3c2-c2ccc(OCCN3CCCCC3)cc2)c1,inactive,–
CCOCCOC(=O)COC(=O)c1ccccc1NC(=O)c1ccccc1,–,"inconclusive: 18.4 µM [falling, single point]"
O=C(Nc1cccc(-c2nc3ncccc3o2)c1)c1ccccc1,inconclusive: 2.67%,–
O=C(NNC(=O)c1n[nH]c(=O)c2ccccc12)c1ccc(Br)cc1,inconclusive: 4.83%,–
